No constants are given. Whether binding was seen depends on the method and setting. In cells and extracts the contact can be indirect. Some results given as binding are weak or reduced against the parent protein; the word gives no strength.
Target: RFPL-3 (human (endogenous in breast cancer cells)) (UniProt O75679)
Assay: co-IP; nuclear extracts from breast cancer cells immunoprecipitated with anti-RFPL3, complexes immunoblotted with anti-CBP

Chains of the proteins cited; added tags and fusions are not shown.
UniProt O75679: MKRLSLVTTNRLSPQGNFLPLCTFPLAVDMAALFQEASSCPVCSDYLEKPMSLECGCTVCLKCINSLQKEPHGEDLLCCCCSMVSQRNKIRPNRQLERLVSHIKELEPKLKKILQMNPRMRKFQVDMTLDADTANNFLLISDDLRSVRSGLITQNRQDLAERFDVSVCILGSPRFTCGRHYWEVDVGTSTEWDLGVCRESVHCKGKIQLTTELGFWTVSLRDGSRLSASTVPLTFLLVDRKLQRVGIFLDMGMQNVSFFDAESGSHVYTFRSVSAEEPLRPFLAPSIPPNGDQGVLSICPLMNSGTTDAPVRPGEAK
UniProt Q92793: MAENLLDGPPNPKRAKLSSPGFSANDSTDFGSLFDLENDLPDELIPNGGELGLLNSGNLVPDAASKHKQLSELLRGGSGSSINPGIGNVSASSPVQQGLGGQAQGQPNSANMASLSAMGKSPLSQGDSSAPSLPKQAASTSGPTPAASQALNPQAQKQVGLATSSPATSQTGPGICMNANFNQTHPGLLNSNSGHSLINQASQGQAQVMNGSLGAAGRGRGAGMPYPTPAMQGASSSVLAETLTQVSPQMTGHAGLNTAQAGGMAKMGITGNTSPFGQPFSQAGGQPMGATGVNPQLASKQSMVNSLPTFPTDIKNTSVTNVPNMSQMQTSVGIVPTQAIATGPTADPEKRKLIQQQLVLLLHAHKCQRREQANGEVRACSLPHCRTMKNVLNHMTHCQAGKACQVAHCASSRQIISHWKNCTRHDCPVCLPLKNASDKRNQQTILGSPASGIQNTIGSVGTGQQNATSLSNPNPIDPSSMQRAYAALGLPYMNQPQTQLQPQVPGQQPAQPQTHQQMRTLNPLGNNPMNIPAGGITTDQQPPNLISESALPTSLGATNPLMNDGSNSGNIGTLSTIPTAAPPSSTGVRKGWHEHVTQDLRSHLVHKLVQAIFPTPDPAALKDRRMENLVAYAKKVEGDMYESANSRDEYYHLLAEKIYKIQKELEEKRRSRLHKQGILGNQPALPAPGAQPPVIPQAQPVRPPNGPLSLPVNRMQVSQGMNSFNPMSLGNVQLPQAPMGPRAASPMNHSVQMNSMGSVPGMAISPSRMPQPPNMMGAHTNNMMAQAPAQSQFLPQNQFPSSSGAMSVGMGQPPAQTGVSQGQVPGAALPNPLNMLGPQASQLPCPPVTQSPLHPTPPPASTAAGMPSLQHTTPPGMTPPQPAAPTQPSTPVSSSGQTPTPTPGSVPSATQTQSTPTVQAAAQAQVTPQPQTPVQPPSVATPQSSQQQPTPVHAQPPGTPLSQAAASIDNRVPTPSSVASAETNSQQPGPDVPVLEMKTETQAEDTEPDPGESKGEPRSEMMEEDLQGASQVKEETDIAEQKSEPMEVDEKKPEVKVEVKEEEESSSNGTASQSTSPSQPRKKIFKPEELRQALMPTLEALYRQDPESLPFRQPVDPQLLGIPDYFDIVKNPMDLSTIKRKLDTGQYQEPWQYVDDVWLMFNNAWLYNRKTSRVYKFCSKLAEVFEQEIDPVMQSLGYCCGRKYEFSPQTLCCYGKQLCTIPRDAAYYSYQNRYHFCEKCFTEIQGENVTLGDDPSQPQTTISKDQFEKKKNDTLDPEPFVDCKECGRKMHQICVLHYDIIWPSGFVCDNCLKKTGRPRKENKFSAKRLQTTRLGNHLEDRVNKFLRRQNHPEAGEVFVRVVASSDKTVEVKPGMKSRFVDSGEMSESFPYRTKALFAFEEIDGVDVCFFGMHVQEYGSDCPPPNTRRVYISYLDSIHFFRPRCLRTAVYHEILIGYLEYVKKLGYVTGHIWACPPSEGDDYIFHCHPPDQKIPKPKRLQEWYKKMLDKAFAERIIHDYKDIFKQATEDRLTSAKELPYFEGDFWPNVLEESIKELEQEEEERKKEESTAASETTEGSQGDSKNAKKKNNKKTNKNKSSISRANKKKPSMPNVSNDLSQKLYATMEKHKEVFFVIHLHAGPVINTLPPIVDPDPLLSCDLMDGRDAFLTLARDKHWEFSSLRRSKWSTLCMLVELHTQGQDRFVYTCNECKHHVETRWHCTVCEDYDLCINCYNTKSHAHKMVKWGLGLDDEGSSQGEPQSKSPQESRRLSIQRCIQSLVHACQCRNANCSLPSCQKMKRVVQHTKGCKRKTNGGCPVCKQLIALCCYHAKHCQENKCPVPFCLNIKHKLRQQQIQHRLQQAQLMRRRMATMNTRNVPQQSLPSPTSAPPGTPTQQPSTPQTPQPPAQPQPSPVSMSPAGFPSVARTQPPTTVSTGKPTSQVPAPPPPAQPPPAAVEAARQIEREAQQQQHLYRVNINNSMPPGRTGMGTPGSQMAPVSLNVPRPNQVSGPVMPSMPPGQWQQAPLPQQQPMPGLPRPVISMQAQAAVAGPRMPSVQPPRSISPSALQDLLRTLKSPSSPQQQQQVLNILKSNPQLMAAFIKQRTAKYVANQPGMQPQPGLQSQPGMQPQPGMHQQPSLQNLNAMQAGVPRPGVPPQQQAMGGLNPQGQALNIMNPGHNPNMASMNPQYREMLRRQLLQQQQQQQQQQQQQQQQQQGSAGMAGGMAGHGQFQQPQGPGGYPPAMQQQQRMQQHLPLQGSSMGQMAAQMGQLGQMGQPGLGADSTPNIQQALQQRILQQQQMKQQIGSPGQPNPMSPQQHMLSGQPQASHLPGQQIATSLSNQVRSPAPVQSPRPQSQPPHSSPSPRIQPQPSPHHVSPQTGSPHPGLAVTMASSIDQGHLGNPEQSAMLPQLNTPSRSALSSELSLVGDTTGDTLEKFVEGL

- binding: binds
Substance: CBP (from UniProt Q92793 1-2442)

Source: PMC9197637
